The list shows only some results of the screen, not a fair sample: it gathers tests that were run many times, whatever their T/C, doses with no T/C, and many T/C values between a quarter and a half above the control. Further doses and runs are listed elsewhere. T/C is the treated group as % of the vehicle group. Some doses have a count of surviving animals in place of a T/C: the source files T/C as zero there, which appears to mark a toxic dose or a test without result, not a measured value. Some doses without a T/C left all or most animals alive at the check, yet need not have been tolerated: survival well below the control is almost never listed, so the zero probably covers shortened survival too. Survivors were counted at the toxicity check, usually on the fifth day, unless a day is given; later deaths do not show. Schedule codes are those of the source, taken here to give the interval after Q, in days (D) or hours (H), and the number of doses after X. Some schedules carry Z or #; the key to these is not given. Where survival is the endpoint, this PubChem deposit counts one and a half times the control or more as active, and values a quarter to a half above the control carry no call in these data; other NCI protocols may use other cut-offs.
System: L1210 leukemia ip in BDF1 mice, survival T/C
Assay: NCI In Vivo Anticancer Drug Screen. Data for tumor model L1210 Leukemia (intraperitoneal) in B6D2F1 (BDF1) mice
Settings: T/C endpoint: mean survival time, higher T/C = longer survival
[1] = dose: 100.0 mg/kg/injection, schedule: Q01DX009 (ip), vehicle: Klucel (hydroxypropylcellulose) (HPC)
[2] = dose: 200.0 mg/kg/injection, schedule: Q01DX009 (ip), vehicle: Klucel (hydroxypropylcellulose) (HPC)
[3] = dose: 400.0 mg/kg/injection, schedule: Q01DX009 (ip), vehicle: Klucel (hydroxypropylcellulose) (HPC)
[4] = dose: 200.0 mg/kg/injection, schedule: Q01DX001 (ip), vehicle: saline
[5] = dose: 200.0 mg/kg/injection, schedule: Q04DX003 (ip), vehicle: saline
[6] = dose: 400.0 mg/kg/injection, schedule: Q04DX003 (ip), vehicle: saline
[7] = dose: 200.0 mg/kg/injection, schedule: Q04DX003 (ip), vehicle: saline with Tween-80
[8] = dose: 400.0 mg/kg/injection, schedule: Q04DX003 (ip), vehicle: saline with Tween-80
[9] = dose: 400.0 mg/kg/injection, schedule: Q01DX009 (ip), vehicle: saline
[10] = dose: 400.0 mg/kg/injection, schedule: Q04DX002 (ip), vehicle: saline with Tween-80
[11] = dose: 200.0 mg/kg/injection, schedule: Q04DX003 (ip), vehicle: Klucel (hydroxypropylcellulose) (HPC)
[12] = dose: 400.0 mg/kg/injection, schedule: Q01DX009 (ip), vehicle: saline with Tween-80

What does the source list for `COC(=O)C1=C(C(=O)OC)C2(C)OC1C1OC12` (configuration not stated)?
survivor count (dose: 50.0 mg/kg/injection, schedule: Q01DX009 (ip), vehicle: Klucel (hydroxypropylcellulose) (HPC)): 0 of 6; survivor count [1]: 0 of 6; survivor count [2]: 0 of 6; survivor count [3]: 0 of 6

What does the source list for `CC1CCC2N(C1)CC1C3(O)CC4(O)C(CCC5C(=O)C(O)CCC54C)C3(O)CC(O)C1(O)C2(C)O` (configuration not stated)?
survivor count (dose: 40.0 mg/kg/injection, schedule: Q01DX001 (ip), vehicle: saline): 3 of 6; survivor count (dose: 80.0 mg/kg/injection, schedule: Q01DX001 (ip), vehicle: saline): 0 of 6

For `Cc1cc[n+](CCCCCCCCCCO)cc1`, which survivor count (dose: 62.5 mg/kg/injection, schedule: Q01DX001 (ip), vehicle: saline) is on record?
Its survivor count is 0 of 6.

And the survivor count (dose: 125.0 mg/kg/injection, schedule: Q01DX001 (ip), vehicle: saline)?
The survivor count was 0 of 6.

And the survivor count (dose: 250.0 mg/kg/injection, schedule: Q01DX001 (ip), vehicle: saline)?
Its survivor count is 0 of 6.

What does the source list for `Nc1cc(Nc2ccccc2)nc(N)n1`?
survivor count (dose: 25.0 mg/kg/injection, schedule: Q01DX Z (ip), vehicle: methylcellulose (MC)): 6 of 6; survivor count (dose: 50.0 mg/kg/injection, schedule: Q01DX Z (ip), vehicle: methylcellulose (MC)): 6 of 6; survivor count (dose: 100.0 mg/kg/injection, schedule: Q01DX Z (ip), vehicle: methylcellulose (MC)): 2 of 6; survivor count (dose: 200.0 mg/kg/injection, schedule: Q01DX Z (ip), vehicle: methylcellulose (MC)): 0 of 6

For `O=C1C2C3CCC(O3)C2C(=O)N1Cc1ccccc1CBr` (configuration not stated), which survivor count (dose: 400.0 mg/kg/injection, schedule: Q04DX003 (ip), vehicle: carboxymethylcellulose (CMC)) is on record?
The survivor count was 5 of 6.

`Cc1ccc(S(=O)(=O)c2ccc(S(=O)(=O)c3ccccc3)cc2)cc1` was tested. Which survivor count [4] did it give?
The survivor count was 6 of 6.

For `O=C(CCCl)[O][Pb]([O]C(=O)CCCl)([c]1ccccc1)[c]1ccccc1`, which survivor count [5] is on record?
Its survivor count is 6 of 6.

What about the survivor count [6] of the same compound?
Its survivor count is 6 of 6.

With `O=NN(CCCl)C(=O)C1CCCCC1` as the compound, how does the survivor count (dose: 375.0 mg/kg/injection, schedule: Q01DX001 (ip), vehicle: carboxymethylcellulose (CMC)) read?
The survivor count was 2 of 6.

For `CC(C)c1ccc(C(O)C2CC2)cc1` (configuration not stated), which survivor count [7] is on record?
The survivor count was 6 of 6.

What about the survivor count [8] of the same compound?
The survivor count was 0 of 6.

With `Nc1nc(=S)[nH]c(C(=O)O)c1Oc1ccccc1` as the compound, how does the survivor count (dose: 50.0 mg/kg/injection, schedule: Q01DX001 (ip), vehicle: Klucel (hydroxypropylcellulose) (HPC)) read?
The survivor count was 6 of 6.

`O=S1(=O)CCCCC1c1ccccc1` (configuration not stated) was tested. Which survivor count [9] did it give?
Its survivor count is 6 of 6.

Which results are given for `NC(N)=NC(N)=Nc1cc(C(F)(F)F)ccc1Cl`?
survivor count (dose: 100.0 mg/kg/injection, schedule: Q04DX002 (ip), vehicle: Klucel (hydroxypropylcellulose) (HPC)): 0 of 3; survivor count (dose: 200.0 mg/kg/injection, schedule: Q04DX002 (ip), vehicle: Klucel (hydroxypropylcellulose) (HPC)): 0 of 3; survivor count (dose: 400.0 mg/kg/injection, schedule: Q04DX002 (ip), vehicle: Klucel (hydroxypropylcellulose) (HPC)): 0 of 3

Which survivor count [10] does the source give for `COc1cc([N+](=O)[O-])ccc1NC(=O)Nc1ccc(S(N)(=O)=O)cc1` here?
Its survivor count is 3 of 3.

For `O=C1c2ccccc2C(C(O)(C(F)(F)F)C(F)(F)F)c2ccccc21`, which survivor count [8] is on record?
The survivor count was 3 of 6.

What does the source list for `CN(C(=O)Cl)c1ccccc1`?
survivor count (dose: 100.0 mg/kg/injection, schedule: Q04DX003 (ip), vehicle: Klucel (hydroxypropylcellulose) (HPC)): 3 of 6; survivor count [11]: 1 of 6; survivor count (dose: 400.0 mg/kg/injection, schedule: Q04DX003 (ip), vehicle: Klucel (hydroxypropylcellulose) (HPC)): 0 of 6

How did the survivor count [4] turn out when `CC(C)(C)CC#N` was run?
Its survivor count is 0 of 4.

And the survivor count (dose: 400.0 mg/kg/injection, schedule: Q01DX001 (ip), vehicle: saline)?
Its survivor count is 0 of 4.

What does the source list for `CC(C)(C)C1CCC(NC(=O)N(CCCl)N=O)CC1` (configuration not stated)?
T/C (dose: 31.0 mg/kg/injection, schedule: Q01DX001 (ip), vehicle: other): 133 % of control; T/C (dose: 62.0 mg/kg/injection, schedule: Q01DX001 (ip), vehicle: other): 142 % of control; T/C (dose: 472.0 mg/kg/injection, schedule: Q01DX001 (ip), vehicle: other): 143 % of control; T/C (dose: 944.0 mg/kg/injection, schedule: Q01DX001 (ip), vehicle: other): 137 % of control; T/C (dose: 1500.0 mg/kg/injection, schedule: Q01DX001 (ip), vehicle: other): 146 % of control

For `Cn1cnc2cnc([N+](C)(C)C)nc21`, which survivor count [6] is on record?
Its survivor count is 1 of 6.

How did the survivor count (dose: 100.0 mg/kg/injection, schedule: Q01DX009 (ip), vehicle: saline) turn out when `O=C(O)CCC(=O)NCCNC(c1ccccc1)(c1ccccc1)c1ccccc1` was run?
Its survivor count is 3 of 6.

And the survivor count (dose: 200.0 mg/kg/injection, schedule: Q01DX009 (ip), vehicle: saline)?
The survivor count was 3 of 6.

And the survivor count [9]?
Its survivor count is 0 of 6.

For `N#Cc1ccc(OC(=O)c2ccc(N=C(N)N)cc2)cc1`, which survivor count [9] is on record?
Its survivor count is 3 of 6.

Which results are given for `O=C(COc1ccc(Cl)cc1)Nc1ccc(F)cc1`?
survivor count [11]: 6 of 6; survivor count [3]: 2 of 6

How did the survivor count [9] turn out when `CCN(CC)CC(=O)NCC(CC)(CCN(C)C)c1cccc2ccccc12` (configuration not stated) was run?
The survivor count was 0 of 6.

And the survivor count [6]?
The survivor count was 1 of 6.

For `Cc1ccc(C(=O)CCl)o1`, which survivor count [8] is on record?
Its survivor count is 3 of 6.

With `CN1C(=O)C(Br)C(Br)c2ccccc21` (configuration not stated) as the compound, how does the survivor count (dose: 400.0 mg/kg/injection, schedule: Q01DX001 (ip), vehicle: other) read?
Its survivor count is 1 of 4.

Which results are given for `C[n+]1c(-c2cc(C(F)(F)F)cc(C(F)(F)F)c2)c2cc(N)ccc2c2ccc(N)cc21`?
T/C (dose: 50.0 mg/kg/injection, schedule: Q01DX005 (ip), vehicle: water): 134 % of control; survivor count (dose: 200.0 mg/kg/injection, schedule: Q01DX005 (ip), vehicle: water): 4 of 4; survivor count (dose: 400.0 mg/kg/injection, schedule: Q01DX005 (ip), vehicle: water): 0 of 4

`S=C(N/N=C/c1ccc(-c2ccccc2)cc1)Nc1ccccc1` was tested. Which survivor count [12] did it give?
The survivor count was 3 of 6.

`Cc1cc[n+](Cc2ccccc2)cc1` was tested. Which survivor count (dose: 50.0 mg/kg/injection, schedule: Q04DX003 (ip), vehicle: saline) did it give?
The survivor count was 6 of 6.

And the survivor count (dose: 100.0 mg/kg/injection, schedule: Q04DX003 (ip), vehicle: saline)?
Its survivor count is 0 of 6.

And the survivor count [5]?
The survivor count was 0 of 6.

What about the survivor count [6] of the same compound?
Its survivor count is 0 of 6.

Which survivor count [12] does the source give for `NC(N)=Nc1ccc(C(=O)O)cc1` here?
Its survivor count is 5 of 6.

For `CC(C)OC(=S)SSc1nc2ccccc2s1`, which survivor count [8] is on record?
Its survivor count is 3 of 6.

`CN1N=C([P+](c2ccccc2)(c2ccccc2)c2ccccc2)CC1(c1ccccc1)c1ccccc1` was tested. Which survivor count (dose: 300.0 mg/kg/injection, schedule: Q01DX001 (ip), vehicle: saline) did it give?
The survivor count was 2 of 6.

For `CC(C)(C)C1=CC(=O)C=CC1=O`, which survivor count (dose: 200.0 mg/kg/injection, schedule: Q01DX009 (ip), vehicle: water) is on record?
Its survivor count is 0 of 6.

And the survivor count (dose: 300.0 mg/kg/injection, schedule: Q01DX001 (ip), vehicle: water)?
The survivor count was 2 of 6.

And the survivor count (dose: 300.0 mg/kg/injection, schedule: Q01DX009 (ip), vehicle: water)?
The survivor count was 0 of 6.

What about the survivor count (dose: 400.0 mg/kg/injection, schedule: Q01DX001 (ip), vehicle: water) of the same compound?
The survivor count was 1 of 6.

`[CH3][Sn]([CH3])([Cl])[Cl]` was tested. Which survivor count (dose: 45.0 mg/kg/injection, schedule: Q01DX009 (ip), vehicle: saline) did it give?
The survivor count was 2 of 6.

And the survivor count (dose: 65.0 mg/kg/injection, schedule: Q01DX009 (ip), vehicle: saline)?
The survivor count was 0 of 6.

For `CCOP(=S)(N1CC1C)N1CC1C` (configuration not stated), which survivor count (dose: 400.0 mg/kg/injection, schedule: Q01DX Z (ip), vehicle: carboxymethylcellulose (CMC)) is on record?
Its survivor count is 5 of 6.

`O=C(O)Cc1cccc(S(=O)(=O)F)c1` was tested. Which survivor count [7] did it give?
The survivor count was 6 of 6.

What about the survivor count [10] of the same compound?
The survivor count was 1 of 6.

What about the survivor count [8] of the same compound?
The survivor count was 0 of 6.

`CCCCCCCCCC(=O)NN=C(C)C` was tested. Which survivor count [1] did it give?
The survivor count was 5 of 6.

What about the survivor count [2] of the same compound?
The survivor count was 0 of 6.

What about the survivor count [3] of the same compound?
The survivor count was 0 of 6.
